Assay results taken from the supplement of paper PMC8728848.
This is one part of the list.

Assays:
Assay in all cases: glycan array binding signal (z-score within array); higher = stronger binding
Conditions in all cases: glycan notation: IUPAC condensed, linker removed
GlcNAc(b1-3)Gal(b1-4)Glc = biological target: GlcNAc(b1-3)Gal(b1-4)Glc
Procedure, shortened: (§1)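 From the Consortium for Functional Glycomics database, 3228 arrays were curated, keeping only those whose protein sequence was available. Binding is given as a within-array Z-score averaged across arrays sharing a protein sequence and across linkers. Negative Z-scores can be read as non-binding.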

[1] = biological target: GlcNAc(b1-3)Gal(b1-4)GlcNAc
Procedure, shortened: as §1

[2] = biological target: GlcNAc(b1-3)Gal(b1-4)GlcNAc(b1-2)Man(a1-3)[GlcNAc(b1-3)Gal(b1-4)GlcNAc(b1-2)Man(a1-6)]Man(b1-4)GlcNAc(b1-4)GlcNAc
Procedure, shortened: as §1

[3] = biological target: GlcNAc(b1-3)Gal(b1-4)GlcNAc(b1-2)Man(a1-3)[GlcNAc(b1-3)Gal(b1-4)GlcNAc(b1-2)Man(a1-6)]Man(b1-4)GlcNAc(b1-4)[Fuc(a1-6)]GlcNAc
Procedure, shortened: as §1

[4] = biological target: GlcNAc(b1-3)Gal(b1-4)GlcNAc(b1-2)[GlcNAc(b1-3)Gal(b1-4)GlcNAc(b1-6)]Man(a1-6)[GlcNAc(b1-3)Gal(b1-4)GlcNAc(b1-2)Man(a1-3)]Man(b1-4)GlcNAc(b1-4)GlcNAc
Procedure, shortened: as §1

[5] = biological target: GlcNAc(b1-3)Gal(b1-4)GlcNAc(b1-3)Gal(b1-4)GlcNAc
Procedure, shortened: as §1

[6] = biological target: GlcNAc(b1-3)Gal(b1-4)GlcNAc(b1-3)Gal(b1-4)GlcNAc(b1-2)Man(a1-3)[GlcNAc(b1-3)Gal(b1-4)GlcNAc(b1-3)Gal(b1-4)GlcNAc(b1-2)Man(a1-6)]Man(b1-4)GlcNAc(b1-4)GlcNAc
Procedure, shortened: as §1

[7] = biological target: GlcNAc(b1-3)Gal(b1-4)GlcNAc(b1-3)Gal(b1-4)GlcNAc(b1-2)Man(a1-3)[GlcNAc(b1-3)Gal(b1-4)GlcNAc(b1-3)Gal(b1-4)GlcNAc(b1-2)Man(a1-6)]Man(b1-4)GlcNAc(b1-4)[Fuc(a1-6)]GlcNAc
Procedure, shortened: as §1

[8] = biological target: GlcNAc(b1-3)Gal(b1-4)GlcNAc(b1-3)Gal(b1-4)GlcNAc(b1-2)[GlcNAc(b1-3)Gal(b1-4)GlcNAc(b1-3)Gal(b1-4)GlcNAc(b1-6)]Man(a1-6)[GlcNAc(b1-3)Gal(b1-4)GlcNAc(b1-3)Gal(b1-4)GlcNAc(b1-2)Man(a1-3)]Man(b1-4)GlcNAc(b1-4)[Fuc(a1-6)]GlcNAc
Procedure, shortened: as §1

[9] = biological target: GlcNAc(b1-3)Gal(b1-4)GlcNAc(b1-3)Gal(b1-4)GlcNAc(b1-3)Gal(b1-4)GlcNAc(b1-2)Man(a1-3)[GlcNAc(b1-3)Gal(b1-4)GlcNAc(b1-3)Gal(b1-4)GlcNAc(b1-3)Gal(b1-4)GlcNAc(b1-2)Man(a1-6)]Man(b1-4)GlcNAc(b1-4)GlcNAc
Procedure, shortened: as §1

[10] = biological target: GlcNAc(b1-3)Gal(b1-4)GlcNAc(b1-3)Gal(b1-4)GlcNAc(b1-3)Gal(b1-4)GlcNAc(b1-2)Man(a1-3)[GlcNAc(b1-3)Gal(b1-4)GlcNAc(b1-3)Gal(b1-4)GlcNAc(b1-3)Gal(b1-4)GlcNAc(b1-2)Man(a1-6)]Man(b1-4)GlcNAc(b1-4)[Fuc(a1-6)]GlcNAc
Procedure, shortened: as §1

[11] = biological target: GlcNAc(b1-3)Gal(b1-4)GlcNAc(b1-3)Gal(b1-4)GlcNAc(b1-3)Gal(b1-4)GlcNAc(b1-2)[GlcNAc(b1-3)Gal(b1-4)GlcNAc(b1-3)Gal(b1-4)GlcNAc(b1-3)Gal(b1-4)GlcNAc(b1-6)]Man(a1-6)[GlcNAc(b1-3)Gal(b1-4)GlcNAc(b1-3)Gal(b1-4)GlcNAc(b1-3)Gal(b1-4)GlcNAc(b1-2)Man(a1-3)]Man(b1-4)GlcNAc(b1-4)[Fuc(a1-6)]GlcNAc
Procedure, shortened: as §1

[12] = biological target: GlcNAc(b1-3)Gal(b1-4)GlcNAc(b1-3)Gal(b1-4)GlcNAc(b1-3)Gal(b1-4)GlcNAc(b1-3)Gal(b1-4)GlcNAc(b1-2)Man(a1-3)[GlcNAc(b1-3)Gal(b1-4)GlcNAc(b1-3)Gal(b1-4)GlcNAc(b1-3)Gal(b1-4)GlcNAc(b1-3)Gal(b1-4)GlcNAc(b1-2)Man(a1-6)]Man(b1-4)GlcNAc(b1-4)GlcNAc
Procedure, shortened: as §1

[13] = biological target: GlcNAc(b1-3)Gal(b1-4)GlcNAc(b1-3)Gal(b1-4)GlcNAc(b1-3)Gal(b1-4)GlcNAc(b1-3)Gal(b1-4)GlcNAc(b1-2)Man(a1-3)[GlcNAc(b1-3)Gal(b1-4)GlcNAc(b1-3)Gal(b1-4)GlcNAc(b1-3)Gal(b1-4)GlcNAc(b1-3)Gal(b1-4)GlcNAc(b1-2)Man(a1-6)]Man(b1-4)GlcNAc(b1-4)[Fuc(a1-6)]GlcNAc
Procedure, shortened: as §1

[14] = biological target: GlcNAc(b1-3)Gal(b1-4)GlcNAc(b1-3)Gal(b1-4)GlcNAc(b1-3)Gal(b1-4)GlcNAc(b1-3)Gal(b1-4)GlcNAc(b1-2)[GlcNAc(b1-3)Gal(b1-4)GlcNAc(b1-3)Gal(b1-4)GlcNAc(b1-3)Gal(b1-4)GlcNAc(b1-3)Gal(b1-4)GlcNAc(b1-6)]Man(a1-6)[GlcNAc(b1-3)Gal(b1-4)GlcNAc(b1-3)Gal(b1-4)GlcNAc(b1-3)Gal(b1-4)GlcNAc(b1-3)Gal(b1-4)GlcNAc(b1-2)Man(a1-3)]Man(b1-4)GlcNAc(b1-4)[Fuc(a1-6)]GlcNAc
Procedure, shortened: as §1

[15] = biological target: GlcNAc(b1-3)Gal(b1-4)GlcNAc(b1-3)Gal(b1-4)GlcNAc(b1-3)GalNAc
Procedure, shortened: as §1

[16] = biological target: GlcNAc(b1-3)Gal(b1-4)GlcNAc(b1-3)GalNAc
Procedure, shortened: as §1

[17] = biological target: GlcNAc(b1-3)Gal(b1-4)GlcNAc(b1-3)[GlcNAc(b1-3)Gal(b1-4)GlcNAc(b1-3)]GalNAc
Procedure, shortened: as §1

[18] = biological target: GlcNAc(b1-3)Gal(b1-4)GlcNAc(b1-6)[Gal(b1-3)]GalNAc
Procedure, shortened: as §1

[19] = biological target: GlcNAc(b1-3)Gal(b1-4)GlcNAc(b1-6)[GlcNAc(b1-3)Gal(b1-3)]GalNAc
Procedure, shortened: as §1

[20] = biological target: GlcNAc(b1-3)Gal(b1-4)GlcNAc(b1-6)[GlcNAc(b1-3)]Gal(b1-4)GlcNAc
Procedure, shortened: as §1

GlcNAc(b1-3)GalNAc = biological target: GlcNAc(b1-3)GalNAc
Procedure, shortened: as §1

GlcNAc(b1-3)Man = biological target: GlcNAc(b1-3)Man
Procedure, shortened: as §1

[21] = biological target: GlcNAc(b1-3)[GlcNAc(b1-4)][GlcNAc(b1-6)]GlcNAc
Procedure, shortened: as §1

[22] = biological target: GlcNAc(b1-3)[GlcNAc(b1-6)]Gal(b1-4)GlcNAc
Procedure, shortened: as §1

[23] = biological target: GlcNAc(b1-3)[GlcNAc(b1-6)]GalNAc
Procedure, shortened: as §1

[24] = biological target: GlcNAc(b1-4)Gal(b1-4)GlcNAc
Procedure, shortened: as §1

GlcNAc(b1-4)GlcNAc = biological target: GlcNAc(b1-4)GlcNAc
Procedure, shortened: as §1

[25] = biological target: GlcNAc(b1-4)GlcNAc(b1-4)GlcNAc
Procedure, shortened: as §1

[26] = biological target: GlcNAc(b1-4)GlcNAc(b1-4)GlcNAc(b1-4)GlcNAc(b1-4)GlcNAc
Procedure, shortened: as §1

[27] = biological target: GlcNAc(b1-4)GlcNAc(b1-4)GlcNAc(b1-4)GlcNAc(b1-4)GlcNAc(b1-4)GlcNAc
Procedure, shortened: as §1

[28] = biological target: GlcNAc(b1-4)[GlcNAc(b1-6)]GalNAc
Procedure, shortened: as §1

[29] = biological target: GlcNAc(b1-6)Gal(b1-4)GlcNAc
Procedure, shortened: as §1

GlcNAc(b1-6)GalNAc = biological target: GlcNAc(b1-6)GalNAc
Procedure, shortened: as §1

[30] = biological target: GlcNAc6S(b1-3)Gal(b1-4)GlcNAc
Procedure, shortened: as §1

Kdn(a2-3)Gal(b1-3)GalNAc = biological target: Kdn(a2-3)Gal(b1-3)GalNAc
Procedure, shortened: as §1

Kdn(a2-3)Gal(b1-3)GlcNAc = biological target: Kdn(a2-3)Gal(b1-3)GlcNAc
Procedure, shortened: as §1

B1: AntigenI/IIC123 (Streptococcus mutans), C9E3B4 (protein)
chain: MASMTGGQQMGRIHFHYFKLAVQPQVNKEIRNNNDINIDRTLVAKQSVVKFQLKTADLPAGRDETTSFVLVDPLPSGYQFNPEATKAASPGFDVTYDNATNTVTFKATAATLATFNADLTKSVATIYPTVVGQVLNDGATYKNNFTLTVNDAYGIKSNVVRVTTPGKPNDPDNPNNNYIKPTKVNKNENGVVIDGKTVLAGSTNYYELTWDLDQYKNDRSSADTIQKGFYYVDDYPEEALELRQDLVKITDANGNEVTGVSVDNYTNLEAAPQEIRDVLSKAGIRPKGAFQIFRADNPREFYDTYVKTGIDLKIVSPMVVKKQMGQTGGSYENQAYQIDFGNGYASNIIINNVPKINPKKDVTLTLDPADTNNVDGQTIPLNTVFNYRLIGGIIPADHSEELFEYNFYDDYDQTGDHYTGQYKVFAKVDITFKDGSIIKSGAELTQYTTAEVDTAKGAITIKFKEAFLRSVSIDSAFQAESYIQMKRIAVGTFENTYINTVNGVTYSSLEHHHHHH
GlcNAc(b1-3)Gal(b1-4)Glc
  glycan array binding signal (z-score): -0.793
[1]
  glycan array binding signal (z-score): -0.299
[2]
  glycan array binding signal (z-score): 0.67
[3]
  glycan array binding signal (z-score): 1.16
[4]
  glycan array binding signal (z-score): 0.352
[5]
  glycan array binding signal (z-score): -0.932
[6]
  glycan array binding signal (z-score): 0.502
[7]
  glycan array binding signal (z-score): 1.92
[8]
  glycan array binding signal (z-score): 1.34
[9]
  glycan array binding signal (z-score): -0.616
[10]
  glycan array binding signal (z-score): 0.852
[11]
  glycan array binding signal (z-score): 0.135
[12]
  glycan array binding signal (z-score): 1.73
[13]
  glycan array binding signal (z-score): 1.61
[14]
  glycan array binding signal (z-score): -0.444
[15]
  glycan array binding signal (z-score): -1.31
[16]
  glycan array binding signal (z-score): -0.251
[17]
  glycan array binding signal (z-score): -1.2
[18]
  glycan array binding signal (z-score): 0.421
[19]
  glycan array binding signal (z-score): -0.317
[20]
  glycan array binding signal (z-score): -0.94
GlcNAc(b1-3)GalNAc
  glycan array binding signal (z-score): -0.207
GlcNAc(b1-3)Man
  glycan array binding signal (z-score): -0.319
[21]
  glycan array binding signal (z-score): -0.796
[22]
  glycan array binding signal (z-score): -1.45
[23]
  glycan array binding signal (z-score): -0.409
[24]
  glycan array binding signal (z-score): -0.801
GlcNAc(b1-4)GlcNAc
  glycan array binding signal (z-score): 1.48
[25]
  glycan array binding signal (z-score): -1.06
[26]
  glycan array binding signal (z-score): -0.525
[27]
  glycan array binding signal (z-score): -0.362
[28]
  glycan array binding signal (z-score): -0.907
[29]
  glycan array binding signal (z-score): 0.455
GlcNAc(b1-6)GalNAc
  glycan array binding signal (z-score): 0.319
[30]
  glycan array binding signal (z-score): -0.422
Kdn(a2-3)Gal(b1-3)GalNAc
  glycan array binding signal (z-score): 1.71
Kdn(a2-3)Gal(b1-3)GlcNAc
  glycan array binding signal (z-score): 0.577
